## Results of single-concentration screens

Source: ChEMBL document CHEMBL3988442, “University of Dundee, Small-Polar-MMV Screening Library” (2021).

Each number is a percent effect as filed. How 0% and 100% were set is not recorded. Most values in the screen are low, and negative values occur. This is an unselected part of the compounds tested. A dash means the value is not listed here; it may have been measured.

A: 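Whole-parasite assay of Trypanosoma brucei over 72 hours; the read-out is not stated. Compounds at 30 µM. Direction is inferred from retests: higher values go with stronger inhibition. Values scatter widely below zero; nearly all retest evidence comes from the higher of the two concentrations used. About 64,000 compounds were tested under these conditions; 1.5% (about 940) showed 50% or more at least once.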
B: 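Cell assay of Leishmania donovani living inside macrophages; the read-out is not stated. Compounds at 30 µM. Direction is inferred from retests: higher values go with stronger inhibition. Size under these conditions: about 69,000 compounds, about 1,000 of them at 50% or above in at least one test.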
C: 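Assay of Toxoplasma gondii numbers, read through their beta-galactosidase reporter with a colour substrate. Compounds at 10 µM. Higher reads as fewer parasites (inferred from which compounds were picked for retests). Of about 67,000 compounds tested this way, about 260 (0.38%) reached 50% or more in at least one test.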

{"smiles": "CC(NC(=O)N1CCC(CC(N)=O)CC1)c1csc2ccccc12", "stereo": "centres undefined", "A": -12.55, "B": 25.18, "C": 0.2938}
{"smiles": "CC(C)(C(N)=O)S(=O)(=O)c1ccc(Br)cc1", "A": -26.91, "B": -11.22, "C": -2.632}
{"smiles": "CCc1nc(C2CCCN2Cc2nccn2Cc2ccccc2)no1", "stereo": "centres undefined", "A": -2.909, "B": 13.5, "C": -4.076}
{"smiles": "[H][C@@]12CCN(C(=O)N(C)C)C[C@@]1([H])O[C@@H](c1nc(C)no1)C2", "B": -10.38, "C": -1.99}
{"smiles": "CCc1[nH]ncc1C(=O)N1CCN(c2nc(C)cc(OC)n2)CC1", "A": 5.691, "B": 13.17, "C": 3.481}
{"smiles": "Cc1nn(C)c2cnn(C(C)C(=O)NCc3cccnc3)c12", "stereo": "centres undefined", "A": 36.04, "B": 33.24, "C": 2.51}
{"smiles": "O=C1NCCN1C1CCN(CCc2cccs2)CC1", "A": 4.145, "B": 25.89, "C": -1.949}
{"smiles": "CCC(C)(C)n1nnnc1C(c1cccs1)N1CCc2ccccc2C1", "stereo": "centres undefined", "A": 99.92, "B": -10.73, "C": -8.702}
{"smiles": "c1cc2n(n1)CC(CNCc1ccc(OCC3CC3)nc1)CN2", "stereo": "centres undefined", "A": 22.14, "B": 26.8, "C": 4.341}
{"smiles": "CCc1ccc(C(=O)N2CCCn3nnc(Cn4cccn4)c3C2)cc1", "A": -6.447, "B": -5.628, "C": 4.619}
{"smiles": "CCC(=O)N(CC)C(c1cccnc1)c1ccc2c(c1)CCO2", "stereo": "centres undefined", "A": -31.63, "B": 23.05, "C": -11.67}
{"smiles": "CNC(=O)c1cc2c(nc1N(C)C)CCN(S(=O)(=O)CC(C)C)CC2.O=C(O)C(F)(F)F", "A": 13.72, "B": 26.79, "C": -0.9978}
{"smiles": "Cc1cnc(CN2CCC(N(C)Cc3noc(C4CC4)n3)C2)o1", "stereo": "centres undefined", "B": 0.5524, "C": -4.374}
{"smiles": "CCCN1CCc2nc(SCc3ccc(F)cc3)[nH]c(=O)c2C1", "A": -5.667, "B": -12.54, "C": 4.102}
{"smiles": "COCCCC1(CO)CCCN(CCS(C)(=O)=O)C1", "stereo": "centres undefined", "A": -16.17, "B": 15.07, "C": -0.2189}
{"smiles": "Cc1cccnc1C(Nc1nccc(C2CCCC2)n1)C1CC1", "stereo": "centres undefined", "A": -23.85, "B": -23.44, "C": 5.159}
{"smiles": "Cc1ccc(-n2nc(C)c3c2NC(=O)CC3c2cnc(N)s2)cc1", "stereo": "centres undefined", "A": 2.745, "B": -7.505, "C": -6.802}
{"smiles": "COc1cc(CN2CCC(O)(c3ccc(C)cn3)CC2)cc(Cl)c1OC", "A": -224.9, "B": -28.81, "C": -5.884}
{"smiles": "CC(C)[C@H]1CN(C2Cc3ccccc3C2)C[C@@H]1NS(C)(=O)=O", "A": -9.138, "B": 12.63, "C": 2.586}
{"smiles": "Cc1cc(C(=O)N(C)Cc2cccs2)nc(N2CCCC2)n1", "A": -6.087, "B": -25.86, "C": 6.801}
{"smiles": "CN(C)c1nccc(N(C)C2CCN(CC3CCOC3)CC2)n1", "stereo": "centres undefined", "A": 10.12, "B": 32.53, "C": 4.092}
{"smiles": "CS(=O)(=O)NCCNC(=O)C1(c2ccc(F)cc2)CC1", "A": -11.69, "B": -11.09, "C": -1.514}
{"smiles": "O=C1CCC2(CCN(Cc3nccs3)CC2)CN1CCCO", "A": -12.34, "B": -1.659, "C": -6.966}
{"smiles": "CN1CCN(C2CCN(Cc3ccc(Cl)cc3)CC2)C1=O", "A": -16.78, "B": -0.07042, "C": 5.133}
{"smiles": "Cc1ncc2c(n1)CN(CC(=O)Nc1ccncc1)CC2", "A": 33.9, "B": 14.56, "C": -9.102}
{"smiles": "CN(Cc1ccccn1)C(CO)c1cccc(Br)c1", "stereo": "centres undefined", "A": -17.57, "B": -7.639, "C": -5.16}
{"smiles": "c1cncc(-c2noc(CN3CCCCC3Cn3cccn3)n2)c1", "stereo": "centres undefined", "A": -3.002, "B": -14.63, "C": -13.19}
{"smiles": "Cc1ccccc1CCCN(C)S(C)(=O)=O", "A": -5.325, "B": 8.493, "C": -2.308}
{"smiles": "CCc1cnc(CN(C(C)=O)C2CCN(CCc3ccncc3)C2)o1", "stereo": "centres undefined", "A": -17.62, "B": 2.842, "C": 6.712}
{"smiles": "Cl.NC(=O)C1CNCCN1C(=O)COc1ccccc1", "stereo": "centres undefined", "B": -16.04, "C": 22.55}
{"smiles": "CCc1noc(CS(=O)(=O)CC(=O)N2c3ccccc3CC2C)n1", "stereo": "centres undefined", "A": 27.14, "B": -29.58, "C": 3.459}
{"smiles": "COc1ccc(-n2ncc(C(C)NC3CCSCC3)c2C)cc1", "stereo": "centres undefined", "A": -6.283, "B": 21.82, "C": 3.926}

Once more, the final 3:

| SMILES | A | B | C |
|---|---|---|---|
| `Cl.NC(=O)C1CNCCN1C(=O)COc1ccccc1` (centres undefined) | - | -16.04 | 22.55 |
| `CCc1noc(CS(=O)(=O)CC(=O)N2c3ccccc3CC2C)n1` (centres undefined) | 27.14 | -29.58 | 3.459 |
| `COc1ccc(-n2ncc(C(C)NC3CCSCC3)c2C)cc1` (centres undefined) | -6.283 | 21.82 | 3.926 |